According to patent publication US12351591B2, “KRas inhibitors” (ELI LILLY AND COMPANY, priority 2022, dated 2025):
Some entries share one result that the patent states for a list of compounds.

Sequences of proteins named here, by UniProt entry; tags and fusion partners are left off. Residues count along the entry.
UniProt P01116, 1-188 isoform P01116-2 G12D: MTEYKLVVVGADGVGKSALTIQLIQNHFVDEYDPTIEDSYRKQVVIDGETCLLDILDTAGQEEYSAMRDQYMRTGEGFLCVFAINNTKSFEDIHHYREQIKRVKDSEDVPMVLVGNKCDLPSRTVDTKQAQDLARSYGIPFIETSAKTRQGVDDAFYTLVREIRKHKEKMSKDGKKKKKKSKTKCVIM
UniProt P01116, 1-188 isoform P01116-2: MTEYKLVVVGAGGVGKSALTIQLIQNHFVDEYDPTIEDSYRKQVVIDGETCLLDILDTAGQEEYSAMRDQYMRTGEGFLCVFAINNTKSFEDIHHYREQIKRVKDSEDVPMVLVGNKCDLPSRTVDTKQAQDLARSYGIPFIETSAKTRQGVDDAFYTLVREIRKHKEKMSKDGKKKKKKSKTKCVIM
UniProt P01116, 1-188 isoform P01116-2 G12V: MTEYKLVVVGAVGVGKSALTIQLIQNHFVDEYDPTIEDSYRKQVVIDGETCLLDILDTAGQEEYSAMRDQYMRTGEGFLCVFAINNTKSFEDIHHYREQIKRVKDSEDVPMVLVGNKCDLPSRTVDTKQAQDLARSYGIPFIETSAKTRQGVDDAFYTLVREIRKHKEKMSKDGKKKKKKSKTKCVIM
UniProt P01116, 1-188 isoform P01116-2 G12C: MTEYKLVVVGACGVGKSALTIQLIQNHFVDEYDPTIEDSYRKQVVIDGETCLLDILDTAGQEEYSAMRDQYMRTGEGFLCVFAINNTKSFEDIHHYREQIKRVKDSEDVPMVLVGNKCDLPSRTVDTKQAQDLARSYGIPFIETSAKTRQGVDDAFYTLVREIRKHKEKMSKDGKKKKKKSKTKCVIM

Assays:
[1] = target: T1, KRas G12D (Homo sapiens, UniProt P01116, G12D); assay: PANC-1 Cellular Active RAS GTPase ELISA (KRas G12D Mutation); format: cell-based; conditions: PANC-1 cells, 2 hours; read-out: relative IC50, inhibition of constitutive RAS GTPase activity (KRas G12D mutant)
T1 construct: host or cells: PANC-1

[2] = target: T2, KRAS WT (Homo sapiens, UniProt P01116); assay: Cellular Phospho-ERK AlphaLISA, MKN45 cells (WT KRAS amplification); format: cell-based; conditions: cells expressing KRAS WT, 2 h; read-out: relative IC50, reduction of phosphorylated ERK-1/2 in cells expressing KRAS WT
T2 construct: or amplification of the KRAS gene; endogenous in cells; host or cells: MKN45

[3] = target: T3, KRAS G12V (Homo sapiens, UniProt P01116, G12V); assay: Cellular Phospho-ERK AlphaLISA, SW620 cells (KRAS G12V); format: cell-based; conditions: 2 h, read-out: relative IC50, reduction of phosphorylated ERK-1/2 in cells expressing KRAS G12V
T3 construct: endogenous in cells; host or cells: SW620

[4] = target: T1, KRas G12D; assay: Cellular Phospho-ERK AlphaLISA, HPAC cells (KRAS G12D); format: cell-based; conditions: 2 h, read-out: relative IC50, reduction of phosphorylated ERK-1/2 in cells expressing KRAS G12D
[5] = target: T4, KRAS G12C (Homo sapiens, UniProt P01116, G12C); assay: Cellular Phospho-ERK AlphaLISA, NCI-1373 cells (KRAS G12C); format: cell-based; conditions: 2 h, read-out: relative IC50, reduction of phosphorylated ERK-1/2 in cells expressing KRAS G12C
T4 construct: endogenous in cells; host or cells: NCI-1373

[6] = target: NRAS (Homo sapiens, UniProt P01111); assay: Cellular Phospho-ERK AlphaLISA, MEF-NRAS cells (RAS-less MEFs expressing NRAS only); format: cell-based, mouse; conditions: 2 h, read-out: relative IC50, phospho-ERK, MEF-NRAS
[7] = target: HRAS (Homo sapiens, UniProt P01112); assay: Cellular Phospho-ERK AlphaLISA, MEF-HRAS cells (RAS-less MEFs expressing HRAS only); format: cell-based, mouse; conditions: 2 h, read-out: relative IC50, phospho-ERK, MEF-HRAS

SMILES: N#Cc1c(N)sc2c(F)ccc(-c3c4c(c5c(N6C7CCC6CNC7)cc(OC[C@@]67CCCN6C[C@H](F)C7)nc5c3F)COC4)c12 (single isomer, unassigned; isomer 1) [Example 45]
- IC50 [1]: < 100 nM
- IC50 [2]: < 500 nM
- IC50 [3]: < 500 nM
- IC50 [4]: < 500 nM
- IC50 [5]: < 500 nM
- IC50 [6]: > 2000 nM
- IC50 [7]: > 2000 nM

SMILES: C[C@@H](O)CN1CC2CCC(C1)N2c1nc(OC[C@@]23CCCN2C[C@H](F)C3)nc2c(F)c(-c3c(F)ccc4sc(N)c(C#N)c34)c3c(c12)COC3 (single isomer, unassigned) [Example 168]
- IC50 [1]: < 100 nM
- IC50 [2]: < 500 nM
- IC50 [3]: < 500 nM
- IC50 [4]: < 500 nM
- IC50 [5]: < 500 nM
- IC50 [6]: > 2000 nM
- IC50 [7]: > 2000 nM

SMILES: CC(CO)CN1CC2CC(C1)N2c1nc(OC[C@@]23CCCN2C[C@H](F)C3)nc2c(F)c(-c3c(F)ccc4sc(N)c(C#N)c34)c3c(c12)COC3 (single isomer, unassigned) [Example 97]
- IC50 [1]: < 100 nM
- IC50 [2]: < 500 nM
- IC50 [3]: < 500 nM
- IC50 [4]: < 500 nM
- IC50 [5]: < 500 nM
- IC50 [6]: > 2000 nM
- IC50 [7]: > 2000 nM

SMILES: N#Cc1c(N)sc2c(F)cnc(-c3c4c(c5cnc(OC[C@@H]6C[C@H](F)CN6CCO)nc5c3F)COC4)c12 [Example 286, 2-Amino-7-fluoro-4-[5-fluoro-3-[[(2S,4S)-4-fluoro-1-(2-hydroxyethyl)pyrrolidin-2-yl]methoxy]-7,9-dihydrofuro[3,4-f]quinazolin-6-yl]thieno[3,2-c]pyridine-3-carbonitrile]
- IC50 [2]: < 500 nM
- IC50 [3]: < 500 nM
- IC50 [4]: < 500 nM
- IC50 [5]: < 500 nM
- IC50 [6]: > 2000 nM
- IC50 [7]: > 2000 nM

SMILES: N#Cc1c(N)sc2c(F)cnc(-c3c4c(c5cnc(OC[C@@H]6C[C@@H](F)CN6CCO)nc5c3F)COC4)c12 [Example 287, 2-Amino-7-fluoro-4-[5-fluoro-3-[[(2S,4R)-4-fluoro-1-(2-hydroxyethyl)pyrrolidin-2-yl]methoxy]-7,9-dihydrofuro[3,4-f]quinazolin-6-yl]thieno[3,2-c]pyridine-3-carbonitrile]
- IC50 [2]: < 500 nM
- IC50 [3]: < 500 nM
- IC50 [4]: < 500 nM
- IC50 [5]: < 500 nM
- IC50 [6]: > 2000 nM
- IC50 [7]: > 2000 nM

SMILES: N#Cc1c(N)sc2c(F)cnc(-c3c4c(c5cnc(OCCN6CCOCC6)nc5c3F)COC4)c12 [Example 309, 2-Amino-7-fluoro-4-[5-fluoro-3-(2-morpholinoethoxy)-7,9-dihydrofuro[3,4-f]quinazolin-6-yl]thieno[3,2-c]pyridine-3-carbonitrile]
- IC50 [2]: < 500 nM
- IC50 [3]: < 500 nM
- IC50 [4]: < 500 nM
- IC50 [5]: < 500 nM
- IC50 [6]: > 2000 nM
- IC50 [7]: > 2000 nM

SMILES: COCCN1CC2CCC(C1)N2c1nc(OC[C@@]23CCCN2C[C@H](F)C3)nc2c(F)c(-c3c(F)ccc4sc(N)c(C#N)c34)c3c(c12)COC3 (single isomer, unassigned) [Example 109]
- IC50 [1]: < 100 nM
- IC50 [2]: < 500 nM
- IC50 [3]: < 500 nM
- IC50 [4]: < 500 nM
- IC50 [5]: < 500 nM
- IC50 [6]: > 2000 nM
- IC50 [7]: > 2000 nM

SMILES: CNc1nc(OC[C@@]23CCCN2C[C@H](F)C3)nc2c(F)c(-c3ncc(F)c4sc(N)c(C#N)c34)c3c(c12)COC3 [Example 316, 2-Amino-7-fluoro-4-[5-fluoro-3-[[(2R,8S)-2-fluoro-1,2,3,5,6,7-hexahydropyrrolizin-8-yl]methoxy]-1-(methylamino)-7,9-dihydrofuro[3,4-f]quinazolin-6-yl]thieno[3,2-c]pyridine-3-carbonitrile]
- IC50 [2]: < 500 nM
- IC50 [3]: < 500 nM
- IC50 [4]: < 500 nM
- IC50 [5]: < 500 nM
- IC50 [6]: > 2000 nM
- IC50 [7]: > 2000 nM

SMILES: N#Cc1c(N)sc2ccc(F)c(-c3c4c(c5c(N6C7CNCC6C7)nc(OC[C@@]67CCCN6C[C@H](F)C7)nc5c3F)COC4)c12 (single isomer, unassigned) [Example 59]
- IC50 [1]: < 100 nM
- IC50 [2]: < 500 nM
- IC50 [3]: < 500 nM
- IC50 [4]: < 500 nM
- IC50 [5]: < 500 nM
- IC50 [6]: > 2000 nM
- IC50 [7]: > 2000 nM

SMILES: CN1CC2CCC(C1)N2c1nc(OC[C@@]23CCCN2C[C@H](F)C3)nc2c(F)c(-c3c(F)ccc4sc(N)c(C#N)c34)c3c(c12)COC3 (single isomer, unassigned) [Example 108]
- IC50 [1]: < 100 nM
- IC50 [2]: < 500 nM
- IC50 [3]: < 500 nM
- IC50 [4]: < 500 nM
- IC50 [5]: < 500 nM
- IC50 [6]: > 2000 nM
- IC50 [7]: > 2000 nM

SMILES: N#Cc1c(N)sc2ccc(F)c(-c3c4c(c5c(N6C7CCC6CN(CC(O)CF)C7)nc(OC[C@@]67CCCN6C[C@H](F)C7)nc5c3F)COC4)c12 (single isomer, unassigned) [Example 166]
- IC50 [1]: < 100 nM
- IC50 [2]: < 500 nM
- IC50 [3]: < 500 nM
- IC50 [4]: < 500 nM
- IC50 [5]: < 500 nM
- IC50 [6]: > 2000 nM
- IC50 [7]: > 2000 nM

SMILES: CN1C[C@@H](O)C[C@H]1COc1ncc2c3c(c(-c4ncc(F)c5sc(N)c(C#N)c45)c(F)c2n1)COC3 [Example 288, 2-Amino-7-fluoro-4-[5-fluoro-3-[[(2S,4S)-4-hydroxy-1-methyl-pyrrolidin-2-yl]methoxy]-7,9-dihydrofuro[3,4-f]quinazolin-6-yl]thieno[3,2-c]pyridine-3-carbonitrile]
- IC50 [2]: < 500 nM
- IC50 [3]: < 500 nM
- IC50 [4]: < 500 nM
- IC50 [5]: < 500 nM
- IC50 [6]: > 2000 nM
- IC50 [7]: > 2000 nM

SMILES: CN1CCC(F)(F)C[C@H]1COc1ncc2c3c(c(-c4ncc(F)c5sc(N)c(C#N)c45)c(F)c2n1)COC3 [Example 293, 2-Amino-4-[3-[[(2S)-4,4-difluoro-1-methyl-2-piperidyl]methoxy]-5-fluoro-7,9-dihydrofuro[3,4-f]quinazolin-6-yl]-7-fluoro-thieno[3,2-c]pyridine-3-carbonitrile]
- IC50 [2]: < 500 nM
- IC50 [3]: < 500 nM
- IC50 [4]: < 500 nM
- IC50 [5]: < 500 nM
- IC50 [6]: > 2000 nM
- IC50 [7]: > 2000 nM

SMILES: CN1C[C@H](OC(F)F)C[C@H]1COc1ncc2c3c(c(-c4ncc(F)c5sc(N)c(C#N)c45)c(F)c2n1)COC3 [Example 280, 2-Amino-4-[3-[[(2S,4R)-4-(difluoromethoxy)-1-methyl-pyrrolidin-2-yl]methoxy]-5-fluoro-7,9-dihydrofuro[3,4-f]quinazolin-6-yl]-7-fluoro-thieno[3,2-c]pyridine-3-carbonitrile]
- IC50 [2]: < 500 nM
- IC50 [3]: < 500 nM
- IC50 [4]: < 500 nM
- IC50 [5]: < 500 nM
- IC50 [6]: > 2000 nM
- IC50 [7]: > 2000 nM

SMILES: COCCN1C[C@@H](F)C[C@H]1COc1ncc2c3c(c(-c4ncc(F)c5sc(N)c(C#N)c45)c(F)c2n1)COC3 [Example 285, 2-Amino-7-fluoro-4-[5-fluoro-3-[[(2S,4S)-4-fluoro-1-(2-methoxyethyl)pyrrolidin-2-yl]methoxy]-7,9-dihydrofuro[3,4-f]quinazolin-6-yl]thieno[3,2-c]pyridine-3-carbonitrile]
- IC50 [2]: < 500 nM
- IC50 [3]: < 500 nM
- IC50 [4]: < 500 nM
- IC50 [5]: < 500 nM
- IC50 [6]: > 2000 nM
- IC50 [7]: > 2000 nM

SMILES: N#Cc1c(N)sc2c(F)cnc(-c3c4c(c5cnc(OC[C@H]6C[C@H](O)C6)nc5c3F)COC4)c12 [Example 299, 2-Amino-7-fluoro-4-[5-fluoro-3-[(3-hydroxycyclobutyl)methoxy]-7,9-dihydrofuro[3,4-f]quinazolin-6-yl]thieno[3,2-c]pyridine-3-carbonitrile]
- IC50 [2]: < 500 nM
- IC50 [3]: < 500 nM
- IC50 [4]: < 500 nM
- IC50 [5]: < 500 nM
- IC50 [6]: > 2000 nM
- IC50 [7]: > 2000 nM

SMILES: CO[C@H]1CN2CCC[C@@]2(COc2ncc3c4c(c(-c5ncc(F)c6sc(N)c(C#N)c56)c(F)c3n2)COC4)C1 [Example 297, 2-Amino-7-fluoro-4-[5-fluoro-3-[[(2R,8S)-2-methoxy-1,2,3,5,6,7-hexahydropyrrolizin-8-yl]methoxy]-7,9-dihydrofuro[3,4-f]quinazolin-6-yl]thieno[3,2-c]pyridine-3-carbonitrile]
- IC50 [2]: < 500 nM
- IC50 [3]: < 500 nM
- IC50 [4]: < 500 nM
- IC50 [5]: < 500 nM
- IC50 [6]: > 2000 nM
- IC50 [7]: > 2000 nM

SMILES: CN1C[C@H](F)C[C@H]1COc1ncc2c3c(c(-c4ncc(F)c5sc(N)c(C#N)c45)c(F)c2n1)COC3 [Example 306, 2-Amino-7-fluoro-4-[5-fluoro-3-[[(2S,4R)-4-fluoro-1-methyl-pyrrolidin-2-yl]methoxy]-7,9-dihydrofuro[3,4-f]quinazolin-6-yl]thieno[3,2-c]pyridine-3-carbonitrile]
- IC50 [2]: < 500 nM
- IC50 [3]: < 500 nM
- IC50 [4]: < 500 nM
- IC50 [5]: < 500 nM
- IC50 [6]: > 2000 nM
- IC50 [7]: > 2000 nM
